Experimental data published in PubChem BioAssay (EPA / NIEHS).
The shares of active, inactive and inconclusive entries below differ from those in the screen. Where the call is inconclusive, the potency comes from a doubtful curve fit. Activity calls are given as the source filed them. The calls were made as follows: active = hit-call score of the fitted dose curve at least 0.9, where 1 is the maximum; inconclusive = response in the unintended direction; inactive = score below 0.9.

By UniProt entry, the sequences of proteins in these tests, tags left out.
UniProt P20309, whole entry, looked up: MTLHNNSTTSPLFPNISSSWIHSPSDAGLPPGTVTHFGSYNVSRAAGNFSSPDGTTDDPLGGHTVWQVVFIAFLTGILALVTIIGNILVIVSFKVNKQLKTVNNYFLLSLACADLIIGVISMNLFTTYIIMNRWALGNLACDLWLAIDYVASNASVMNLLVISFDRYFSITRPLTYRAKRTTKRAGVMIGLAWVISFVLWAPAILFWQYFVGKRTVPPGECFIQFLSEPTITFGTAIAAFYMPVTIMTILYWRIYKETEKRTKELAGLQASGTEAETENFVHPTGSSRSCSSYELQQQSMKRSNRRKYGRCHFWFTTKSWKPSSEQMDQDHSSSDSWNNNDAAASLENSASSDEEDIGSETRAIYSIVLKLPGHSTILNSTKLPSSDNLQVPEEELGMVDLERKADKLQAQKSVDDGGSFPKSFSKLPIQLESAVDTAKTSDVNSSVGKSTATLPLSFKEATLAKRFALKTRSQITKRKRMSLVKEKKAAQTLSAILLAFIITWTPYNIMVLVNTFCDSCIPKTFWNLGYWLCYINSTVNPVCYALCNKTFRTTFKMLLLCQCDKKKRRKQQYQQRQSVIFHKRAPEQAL
UniProt P08173, whole entry, looked up: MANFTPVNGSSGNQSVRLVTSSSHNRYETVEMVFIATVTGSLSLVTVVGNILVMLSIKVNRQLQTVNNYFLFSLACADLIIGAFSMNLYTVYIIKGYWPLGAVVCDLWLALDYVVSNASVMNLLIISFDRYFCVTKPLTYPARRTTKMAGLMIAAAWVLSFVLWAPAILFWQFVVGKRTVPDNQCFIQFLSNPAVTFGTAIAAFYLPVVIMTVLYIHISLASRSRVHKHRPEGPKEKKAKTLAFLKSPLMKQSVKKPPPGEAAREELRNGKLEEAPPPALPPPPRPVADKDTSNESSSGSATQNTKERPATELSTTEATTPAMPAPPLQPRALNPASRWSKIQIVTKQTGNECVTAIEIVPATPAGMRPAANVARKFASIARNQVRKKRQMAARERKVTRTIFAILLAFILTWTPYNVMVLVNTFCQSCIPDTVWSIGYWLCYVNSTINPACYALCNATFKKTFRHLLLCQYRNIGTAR

Each compound was assayed against Muscarinic acetylcholine receptor M3 (Homo sapiens) (UniProt P20309) (assay: NVS_GPCR_hM3: NovaScreen (NVS) G Protein-Coupled Receptor Assay for human Muscarinic, M3 Receptor (AID 2283272)).
Procedure, shortened: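 Radioligand displacement binding on human M3 receptor in CHO-derived membranes, 1 h incubation, filter-based scintillation counting. Primary screen in duplicate at 25 uM; actives followed up in concentration series; loss of signal versus DMSO.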

Compound | AC50 | outcome
c1ccc2ccccc2c1 | inconclusive: 25 µM | –
COc1cccc([C@H](O)C2CCN(CCc3ccc(F)cc3)CC2)c1OC | – | inactive
C=CCOC(=O)c1ccccc1C(=O)OCC=C | active: 36.7 µM | –
CC[C@H]1CC[C@H](NCc2cc3c(cc2OC)[C@H]2C[C@H]2C(=O)N3C)[C@H](c2ccccc2)N1 | active: 12.3 µM | –
Cc1nccn1-c1ccc(Sc2cccc(C3(C(N)=O)CCOCC3)c2)cc1 | – | inactive
CCCCCCCCCCCCO | inconclusive: 45 µM | –

3 entries from above, tab-delimited.
Compound	AC50	outcome
c1ccc2ccccc2c1	inconclusive: 25 µM	–
COc1cccc([C@H](O)C2CCN(CCc3ccc(F)cc3)CC2)c1OC	–	inactive
C=CCOC(=O)c1ccccc1C(=O)OCC=C	active: 36.7 µM	–

Each compound was assayed against human Muscarinic, M4 Receptor, CHRM4 (gene 1132) (UniProt P08173) (assay: NVS_GPCR_hM4: NovaScreen (NVS) G Protein-Coupled Receptor Assay for human Muscarinic, M4 Receptor (AID 2283274)).
Procedure, shortened: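 Filter-based scintillation counting of radioligand bound to CHO-expressed human M4 preparations after 1 h; loss of signal fitted versus DMSO. Initial duplicate testing at 25 uM, concentration-response follow-up for actives.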

Compound | AC50 | outcome
CCC(=C(c1ccc(O)cc1)c1ccc(OCCN(C)C)cc1)c1ccccc1 | inconclusive: 1.12 µM | –
Clc1cc(Cl)c2c(c1)N=C1CCCCCN1C2 | active: 1.71 µM | –
O=C(O)c1[nH]n(-c2ccc(S(=O)(=O)O)cc2)c(=O)c1N=Nc1ccc(S(=O)(=O)O)cc1 | inconclusive: 23.6 µM | –
CC(C)(C)c1cc(C(C)(C)C)c(O)c(C(C)(C)C)c1 | inconclusive: 1.05 µM | –
ClC1=C(Cl)C(Cl)(Cl)C(Cl)=C1Cl | inconclusive: 25 µM | –
c1ccc(C(O[C@@H]2CCCN(CCc3ccc4c(c3)OCO4)C2)c2ccccc2)cc1 | active: 0.0501 µM | –
CCCCCc1ccc(N)cc1 | inconclusive: 0.115 µM | –
CCCCCCCCN(C)CCCCCCCC | – | inactive
N[C@@H](Cc1cc(I)c(Oc2ccc(O)c(I)c2)c(I)c1)C(=O)O | inconclusive: 0.152 µM | –
CCc1nc(N)nc(N)c1-c1ccc(Cl)cc1 | – | inactive
